Test results as given in patent US9657073B2, “Inhibitors of Bcl-2” (Case Western Reserve University, priority 2010, dated 2017).
Not every detail of the peptide structures is certain; ends, links or a residue may be inferred. Where no end group is shown, it is not given here.

Tests used:
[1] = tested on: Bcl-2-positive WEHI7.2 cells; assay: Single cell digital imaging of intracellular Ca2+ (Fura-2); type: cell-based, murine
Procedure: WEHI7.2 cells were cultured in DMEM supplemented with 10% fetal calf serum, L-glutamine (2 mM), and nonessential amino acids (100 μM). Transfections of WEHI7.2 cells with expression vectors encoding wild type Bcl-2 and Bcl-2RS/GG were described previously. Jurkat cells and RS11846 cells were cultured in RPMI medium supplemented with 10% fetal bovine serum, L-glutamine (2 mM), and nonessential amino acids (100 μM). Cells were maintained in 5% carbon dioxide at high humidity.
Methods of Ca^2+ imaging, described in detail previously, were employed here with only minor modification. Briefly, cells adhered to poly-L-lysine-coated coverslips (35-mm coverslip dishes, MatTek Corp., Ashland, Mass.) were loaded with 1 μM Fura-2 AM for 45 min at 25° C. in extracellular buffer (ECB) (130 mM NaCl, 5 mM KCl, 1.5 mM CaCl2, 1 mM MgCl2, 25 mM Hepes, pH 7.5, 1 mg/ml BSA, and 5 mM glucose). The buffer was replaced with fresh ECB and the incubation continued for […] at 25° C. to permit de-esterification. Culture dishes were mounted on the non-heated stage of an inverted microscope (Olympus CKX41) equipped with a 20× Fluor objective. Excitation light was alternated between 340 and 380 nm by a filter wheel (Sutter Instrument Co.), with 0.8 sec and 0.2 sec exposure times respectively, and emitted light was filtered at >510 nm and collected with an intensified charge-coupled device camera (Cooke 12 bit VGA). The video signal was digitized using InCyt Im2 software (Intracellular Imaging) and subsequently processed using Microsoft Excel. To determine Rmin cells were perfused with ECB deficient in Ca^2+ and supplemented with 4 mM EGTA and 10 μM ionomycin. Rmax was obtained by perfusing cells with ECB supplemented with 4 mM CaCl2 and 10 μM ionomycin. […] In most experiments peptides were fused with the cell penetrating peptide of HIV TAT to facilitate uptake by cells. In some experiments peptides, without linkage to TAT, were delivered into cells using Chariot reagent (Active Motif) as previously described. Xestospongin C (Enzo Life Sciences International) and U73122 (Sigma), both dissolved in DMSO, were added to cells […] prior to Ca^2+ measurements.

primary CLL cells = assay: as above; type: cell-based, human; settings: 10 μM peptide
Text: Lymphocytes were freshly separated from heparinized peripheral blood obtained from normal adult volunteers or adult patients with chronic lymphocytic leukemia (CLL) meeting standard diagnostic guidelines. Patients had either never received treatment or had received treatment over two years prior to obtaining samples. We conformed to all guidelines and regulations in accordance with Internal Review Board protocols ICC2902/11-02-28 (Case Western Reserve University Cancer Center/University Hospitals of Cleveland Ireland Cancer Center). Cells were separated by centrifugation through Ficoll-Hypaque and suspended in RPMI medium supplemented with 10% fetal bovine serum, L-glutamine (2 mM), and nonessential amino acids (100 μM) at a density of 2 million cells/ml. Normal CD19+ B cells were pooled from healthy individuals between 26 and 32 years of age, in accordance with IRB-approval (as above). Mononuclear cells were separated by Ficoll-Hypaque centrifugation, and further isolation of B and T cells was achieved by magnetic separation using CD19 microbeads (Miltenyi Biotec, Bergisch Gladbach, Germany).
Methods of Ca^2+ imaging, described in detail previously, were employed here with only minor modification. Briefly, cells adhered to poly-L-lysine-coated coverslips (35-mm coverslip dishes, MatTek Corp., Ashland, Mass.) were loaded with 1 μM Fura-2 AM for 45 min at 25° C. in extracellular buffer (ECB) (130 mM NaCl, 5 mM KCl, 1.5 mM CaCl2, 1 mM MgCl2, 25 mM Hepes, pH 7.5, 1 mg/ml BSA, and 5 mM glucose). The buffer was replaced with fresh ECB and the incubation continued for […] at 25° C. to permit de-esterification. Culture dishes were mounted on the non-heated stage of an inverted microscope (Olympus CKX41) equipped with a 20× Fluor objective. Excitation light was alternated between 340 and 380 nm by a filter wheel (Sutter Instrument Co.), with 0.8 sec and 0.2 sec exposure times respectively, and emitted light was filtered at >510 nm and collected with an intensified charge-coupled device camera (Cooke 12 bit VGA). […]

[2] = 2 μM, 90 min recording, mean±SE, 3 experiments, FIG. 3

Sequence: RKKRRQRRRGGNVYTEIKCNSLLPLDDIVRV [TAT-IDP]
- number of Ca2+ spikes observed per cell ([1]; 2 μM peptide, 70 min recordings, FIG. 2): 6
- cells with one or two isolated Ca2+ oscillations [1, 2]: 22±2%
- cells with sustained pattern of Ca2+ oscillations (three or more peaks) [1, 2]: 36±7%
- cells displaying Ca2+ elevations (any pattern) ([1]; 2 μM, 90 min recording, on average): over 50%
- CLL cells with repetitive oscillations (≧3 successive Ca2+ spikes) (primary CLL cells; 90 min): 12 ±2%
- CLL cells with single or dual spikes (primary CLL cells; 90 min): 14 ±2%
- CLL cells with Ca2+ elevation (primary CLL cells; recordings typically 90 min, FIG. 9): 26 ±2%
